The campaign covered roughly 52,000 sequences. About 210 (0.4%) were called active.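 How the source made its calls: active means gene whose silencing raises cell survival under the drug, median off-target-corrected z-score across its silencing RNAs 2 or more; inactive means the rest.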 Some of the results follow.
assay: Resistance to Poly (ADP-Ribose) Polymerase inhibitor: Gene Identification via Genome-wide siRNA Screen; details: mouse BRCA2 R2336H ES cells, olaparib, CellTiter-Glo viability; stronger effect = higher value
Source text: The role of Poly (ADP-Ribose) Polymerase (PARP) proteins in DNA repair has been elegantly utilized for the synthetic lethality-based treatment of BRCA-deficient tumors by PARP inhibitors. PARP inhibitors are now being used for treatment of BRCA-deficient breast and ovarian cancers. […] While several mechanisms of drug resistance have been identified, majority of these tumors develop drug resistance due to unknown causes. To identified novel regulators of chemo-resistance in BRCA2-mutated cells, we performed a genome wide siRNA library screen. We have found ES cells expressing a hypomorphic allele of BRCA2 to be hypersensitive to PAPP inhibitors (such as olaparib). We used ES cells expressing a mutant allele of BRCA2 that has a single amino acid substitution at position 2336 (arginine to histidine, R2336H). The screen was conducted using an Ambion (Thermo) Silencer Mouse Genome siRNA collection. The library targets 17,575 mouse genes with 3 siRNAs per gene. TET2 (E130014J05Rik) was identified as a top candidate.
Transfections were performed in 384 well plates (Corning 3707). Plates were coated with 0.1% gelatin in H2O overnight at ambient temperature. Gelatin solution was aspirated (BioTek EL406) and siRNAs were printed using a Bravo VPrep liquid handler integrated within a BioCel automation platform (Agilent). Cell viability was measured using CellTiter Glo (Promega). For transfections, […] of serum free media containing Lipofectamine RNAiMax […] was added to wells containing siRNA (0.8pmol). Lipid and siRNA were allowed to complex for 45 min at ambient temperature before addition of 1000 cells in DMEM, 30% FBS to yield final transfection mixtures containing 20 nM siRNA in DMEM, 15% FBS. PARPi (olaparib, AZD2281) was added 48 h post-transfection (500 nM) and viability (CellTiter Glo, Promega) was assayed 72 h later on a PerkinElmer Envision 2104 Multilabel plate reader. Ambion Silencer Select Negative Control #2 was incorporated on all screening plates (16 wells) and the median negative control value on each plate was used for normalization. An siRNA targeting Trp53 was used as a positive control. This control yielded a median protective effect of ~1.9 fold versus negative control throughout the screen. The median absolute deviation (MAD) based z-score was calculated for each siRNA. Genes were then ranked by taking the median value for all siRNAs tested against a given gene. Scores were also adjusted for seed-based off-target effects to help deprioritize likely false positives.

Question: Which z-score does the source give for GGUUUUCCCAUGAAGCAAGTT against Rps6 here?
Answer: inactive: -2.82

Question: With “GAAGAUUCUCCAUUGUUUGTT against 1110031B11Rik” as the sequence, how does the z-score read?
Answer: inactive: -0.268

Question: For GGCACAAAGCAAGAUUACCTT against Cebpz, which z-score is on record?
Answer: inactive: -1.8

Question: With GGUGUGACACCUAAGAUGATT against AW212607 as the sequence, how does the z-score read?
Answer: inactive: 1.39

Question: Which z-score does the source give for GGGCAACUUUUUGAUAUUCTT against Btbd14a here?
Answer: inactive: -0.496

Question: With GGCCUAUGUACCCUACCAATT against Enpp1 as the sequence, how does the z-score read?
Answer: inactive: -0.811

Question: With GGGAAGUUGUCAAUACCUGTT against Sra1 as the sequence, how does the z-score read?
Answer: inactive: 1.02

Question: Which z-score does the source give for GCCUCAACCUGAUUAUCACTT against Enpp7 here?
Answer: inactive: 1.83

Question: With GAAAUAUUUCUCAUCCUUGTT against Upk1b as the sequence, how does the z-score read?
Answer: inactive: 0.93

Question: Which z-score does the source give for GGCAACCAGAUAUUUGUUATT against Myef2 here?
Answer: inactive: -0.593

Question: Which z-score does the source give for GGAUGCUUUACCAAUGGUUTT against Mbtps2 here?
Answer: inactive: -0.873

Question: Which z-score does the source give for GGUACAAAGAUGGUUGCGATT against AU016977 here?
Answer: inactive: -1.36

Question: Which z-score does the source give for GCCCGAUUAAAAUAAAUUGTT against Arih2 here?
Answer: inactive: 0.862

Question: Which z-score does the source give for CAUUUCGCCCUGGAUAGUGTT against Olfr523 here?
Answer: inactive: 1.99

Question: With “GGAGAUGCAUACCAAAGAUTT against 1700019I23Rik” as the sequence, how does the z-score read?
Answer: inactive: -0.86

Question: Which z-score does the source give for GGACUUGGAGAGCAAAAGCTT against Tmem16b here?
Answer: inactive: -0.46

Question: With GCUAUGUUCUUGGAUGAUUTT against V1ra4 as the sequence, how does the z-score read?
Answer: inactive: 0.131

Question: For CCAGCUAAUUACUCAGCCUTT against Lyzl4, which z-score is on record?
Answer: inactive: 0.324

Question: For GCAAAUUGUAUUAUAGAGCTT against Foxo1, which z-score is on record?
Answer: inactive: 0.777

Question: For GGAGUUUGUGUUCCUGACGTT against Chst10, which z-score is on record?
Answer: inactive: -2.44

Question: Which z-score does the source give for “GGCUGGACCAAAUUUGGUATT against MGI:1915703” here?
Answer: inactive: 0.75

Question: For GGUCCUGCUUCGUUAUCAGTT against Aldh6a1, which z-score is on record?
Answer: inactive: -0.297

Question: Which z-score does the source give for GGAGUACGAGAAGAGCUCUTT against Kcnq2 here?
Answer: inactive: 1.34

Question: With GGGAGGACACUAUUUGAUUTT against Slco2b1 as the sequence, how does the z-score read?
Answer: inactive: 0.868

Question: With GCACUGUGGUCCAUACUACTT against Olfr1002 as the sequence, how does the z-score read?
Answer: inactive: -0.575

Question: With “GGCCAUGAAAUGAAUUUCUTT against 2410141K09Rik” as the sequence, how does the z-score read?
Answer: inactive: -0.0342

Question: With GCACCGUUGAAGUCAAGGUTT against Tdrd6 as the sequence, how does the z-score read?
Answer: inactive: -0.87

Question: Which z-score does the source give for GGAGUUCAUCCUCACAGAUTT against Vdr here?
Answer: inactive: -0.395

Question: Which z-score does the source give for GCUGAAAUCCAGGAUAGAGTT against Zw10 here?
Answer: inactive: 0.0178

Question: Which z-score does the source give for GGCUAAAACUACAAAGAAGTT against Rpl36a here?
Answer: inactive: -0.69

Question: Which z-score does the source give for GCUGAAAACUAUGAUGGCCTT against Nfkbib here?
Answer: inactive: 0.87

Question: For AACCUAACCAUUAUCCUCCTT against Olfr803, which z-score is on record?
Answer: inactive: -0.642

Question: For CCAGAACGCGGAGCAAAUUTT against Sec63, which z-score is on record?
Answer: inactive: -0.655

Question: Which z-score does the source give for GGGUAGUUUUAAUUAAGCCTT against Lims1 here?
Answer: inactive: -0.11

Question: Which z-score does the source give for GCUCUCGAGAGCCAAAGAATT against BC024582 here?
Answer: inactive: -1.6

Question: Which z-score does the source give for “CGACAUCUCUAAAGUUAAATT against 4933424A10Rik” here?
Answer: inactive: -0.0655

Question: With “GGCUUCCAGAAUUCAAAUUTT against 1110060F11Rik” as the sequence, how does the z-score read?
Answer: inactive: -1.07

Question: For GGCAGUUAUUCAGAAUUGATT against Hirip5, which z-score is on record?
Answer: inactive: 0.85

Question: For GGACGAGAACAUCUUAAUCTT against Pim1, which z-score is on record?
Answer: inactive: 0.127

Question: Which z-score does the source give for “GGAGGUGUUCAUUGAAGUCTT against D11Ertd603e” here?
Answer: inactive: 0.0966

Question: With GGCAGGCAGACGAAUGUUCTT against Tbx1 as the sequence, how does the z-score read?
Answer: inactive: -0.174

Question: Which z-score does the source give for GGUAUUACCACGACAGGUATT against Usp42 here?
Answer: inactive: -0.95

Question: With GGACUUGGUCAAUCUGACATT against AI841794 as the sequence, how does the z-score read?
Answer: inactive: -0.0165

Question: For GGAAUUCGCCAACUGGCUGTT against Slc14a1, which z-score is on record?
Answer: inactive: 0.118

Question: With GGGCAAUUUGGAGCUUACCTT against Erbb2 as the sequence, how does the z-score read?
Answer: inactive: -0.961

Question: For GACACUACUCACAUCAGAUTT against Hes3, which z-score is on record?
Answer: inactive: 0.958

Question: With GGUUACCUGUGCUAGAAAATT against Zswim5 as the sequence, how does the z-score read?
Answer: inactive: -0.494

Question: Which z-score does the source give for GGUGAAGAGUUCAAACAUCTT against Atp9a here?
Answer: inactive: 0.602

Question: Which z-score does the source give for GGCUAUGAGUGCCAUAUCCTT against Wfdc1 here?
Answer: inactive: 1.04

Question: For “GGCCGUUCUGUUGACCUUATT against 9230106D23Rik”, which z-score is on record?
Answer: inactive: -0.161

Question: For CCUGCUAUGUAAUAUAGAUTT against Eef2k, which z-score is on record?
Answer: inactive: -0.327

Question: With GGUGAUCAGCAUGGUGGGUTT against Pold1 as the sequence, how does the z-score read?
Answer: inactive: -1.47

Question: For GGAGCUGUUUGGACCUUCUTT against Tsrc1, which z-score is on record?
Answer: inactive: -1.73

Question: With CGGUAGAGCGCAAAGAUUATT against Nef3 as the sequence, how does the z-score read?
Answer: inactive: -0.348

Question: For GGGUGAAUUUGAUUCGCUGTT against BC022765, which z-score is on record?
Answer: inactive: 0.0055

Question: For GCAUGCAUUCGUGAAGAAUTT against BC042549, which z-score is on record?
Answer: inactive: -0.938

Question: For GUCUUCUAACCAGGUAAAGTT against Tgoln2, which z-score is on record?
Answer: inactive: 1.05

Question: For “GGCACCUGAGCGAUUUGAUTT against D8Ertd812e”, which z-score is on record?
Answer: inactive: -0.292

Question: Which z-score does the source give for GGCUGUUUGAGAUAUUAAUTT against Def6 here?
Answer: inactive: 1.01

Question: With CCAAAAGACCAUUGUCGUCTT against BC016495 as the sequence, how does the z-score read?
Answer: inactive: 0.0729

Question: For GCUAACCAGUCAGUUGAUCTT against Mocs1, which z-score is on record?
Answer: inactive: 0.0786

Question: Which z-score does the source give for GCUUUCUGAUUCAAAGAUGTT against Dsc3 here?
Answer: inactive: 0.295

Question: Which z-score does the source give for “GCGGAAGAAGGCUUGUUACTT against 4930434E21Rik” here?
Answer: inactive: 0.906

Question: Which z-score does the source give for GGUCACGAUUACUUCCCUGTT against Pcdha12 here?
Answer: inactive: -1.4

Question: With GGAUUUUUAUUCCAGAAGGTT against Fundc1 as the sequence, how does the z-score read?
Answer: inactive: -0.145

Question: With GGAAGAGAAAGAAGAGUAATT against Tub as the sequence, how does the z-score read?
Answer: inactive: -1.89

Question: Which z-score does the source give for “GGUUACCAUCAUUUAGAGATT against 2810458H16Rik” here?
Answer: inactive: 0.0699

— PubChem BioAssay AID1347423 (Functional Genomics Laboratory (NCATS/FGL), 2020)
